Measurements from doi:10.1101/2022.08.01.502312.
Results are given in words; binding and its absence hold for the method and conditions named.

Key:
[1] = target: Human FSHR (residues 18-695) with the constitutively active mutation S273I (human) (UniProt P23945); assay: cryo-EM structure
[2] = target: T1, Human FSHR (residues 18-695), wild type (human), P23945; assay: cryo-EM structure; details: remark: other sources report otherwise
T1 chain: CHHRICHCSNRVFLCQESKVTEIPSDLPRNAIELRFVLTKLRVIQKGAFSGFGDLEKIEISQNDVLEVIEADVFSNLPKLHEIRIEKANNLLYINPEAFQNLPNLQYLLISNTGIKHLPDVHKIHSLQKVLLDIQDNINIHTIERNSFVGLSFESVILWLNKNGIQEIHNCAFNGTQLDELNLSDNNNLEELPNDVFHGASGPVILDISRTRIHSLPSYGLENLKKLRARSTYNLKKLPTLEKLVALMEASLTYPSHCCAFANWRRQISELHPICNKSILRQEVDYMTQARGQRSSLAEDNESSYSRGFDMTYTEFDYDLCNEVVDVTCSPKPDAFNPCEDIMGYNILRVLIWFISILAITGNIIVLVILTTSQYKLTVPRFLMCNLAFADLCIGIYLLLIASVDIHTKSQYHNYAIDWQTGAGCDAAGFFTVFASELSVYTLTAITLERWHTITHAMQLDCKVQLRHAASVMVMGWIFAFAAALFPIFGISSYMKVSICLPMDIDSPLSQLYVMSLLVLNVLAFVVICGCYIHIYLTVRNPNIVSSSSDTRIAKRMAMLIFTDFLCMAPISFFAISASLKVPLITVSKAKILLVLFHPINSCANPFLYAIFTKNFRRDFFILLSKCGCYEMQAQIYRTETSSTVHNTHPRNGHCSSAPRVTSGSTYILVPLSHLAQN

Molecule	binding [1]	binding [2]
Human FSHR (residues 18-695) with the constitutively active mutation S273I (from UniProt P23945 18-695) (receptor)	no binding	–
Human FSHR (residues 18-695), wild type, P23945 18-695 (receptor) CHHRICHCSNRVFLCQESKVTEIPSDLPRNAIELRFVLTKLRVIQKGAFSGFGDLEKIEISQNDVLEVIEADVFSNLPKLHEIRIEKANNLLYINPEAFQNLPNLQYLLISNTGIKHLPDVHKIHSLQKVLLDIQDNINIHTIERNSFVGLSFESVILWLNKNGIQEIHNCAFNGTQLDELNLSDNNNLEELPNDVFHGASGPVILDISRTRIHSLPSYGLENLKKLRARSTYNLKKLPTLEKLVALMEASLTYPSHCCAFANWRRQISELHPICNKSILRQEVDYMTQARGQRSSLAEDNESSYSRGFDMTYTEFDYDLCNEVVDVTCSPKPDAFNPCEDIMGYNILRVLIWFISILAITGNIIVLVILTTSQYKLTVPRFLMCNLAFADLCIGIYLLLIASVDIHTKSQYHNYAIDWQTGAGCDAAGFFTVFASELSVYTLTAITLERWHTITHAMQLDCKVQLRHAASVMVMGWIFAFAAALFPIFGISSYMKVSICLPMDIDSPLSQLYVMSLLVLNVLAFVVICGCYIHIYLTVRNPNIVSSSSDTRIAKRMAMLIFTDFLCMAPISFFAISASLKVPLITVSKAKILLVLFHPINSCANPFLYAIFTKNFRRDFFILLSKCGCYEMQAQIYRTETSSTVHNTHPRNGHCSSAPRVTSGSTYILVPLSHLAQN	–	no binding
